{
  "source": "PubChem BioAssay AID1688",
  "about": "(National Center for Advancing Translational Sciences (NCATS), 2009)",
  "note": "The campaign covered roughly 220,000 compounds. About 2,400 (1.1%) were called active. The shares of active, inactive and inconclusive entries below differ from those in the screen. Calls come from the whole dose curve; as a rule, active = well fitted inhibition curve with a large enough effect; inconclusive = small, poorly fitted or top-dose-only effect, or effect the other way; inactive = no such curve, though single readings can be large or run the other way. Potencies of inconclusive entries are doubtful fits and often do not repeat. % is set by controls: 0 for no effect and ±100 for the full control effect; potency is the fitted concentration of half-maximal effect.",
  "data": [
    {"experiment": "qHTS Multiplex Assay to Identify Dual Action Probes in a Cell Model of Huntington: Aggregate Formation (GFP); note: nearly all actives have a fitted effect of over 60% in size", "conditions": "PC12 HttQ103-GFP aggregates, Acumen cytometry, 40 h; activity change, negative = inhibition: at 46.1 µM (top of the series) unless noted", "in_short": "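Read-out: GFP aggregate count by laser scanning cytometer (488 nm excitation, 500-530 nm emission, 1–25 µm objects >6 SD above background). Cells: PC12, inducible HTTex1-Q103-GFP, 100 nM tebufenozide; compounds titrated.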", "values": [
      {"smiles": "CC(=O)c1cccc(NC(=O)Nc2ccc(C)cc2)c1", "activity change, negative = inhibition": "inactive: -23.6%"},
      {"smiles": "CSC1=NCCN1C(=O)c1c(-c2ccccc2Cl)noc1C", "Potency": "inconclusive: 1.26 µM [inhibitor, single point]"},
      {"smiles": "CCn1c(=O)c([N+](=O)[O-])c(NCCc2ccccc2)c2ccccc21", "Potency": "inconclusive: 22.4 µM [inhibitor, partial curve]"},
      {"smiles": "CCSc1nc(=S)cc(C)[nH]1", "activity change, negative = inhibition": "inactive: 26.8% [at 9.22 µM]"},
      {"smiles": "COC(=O)CN1C(=S)N(c2ccc(OC)cc2)C(=O)/C1=C/c1ccc(OC)cc1", "activity change, negative = inhibition": "inactive: -4.79% [at 9.22 µM]"},
      {"smiles": "Cc1cccc(NC(=O)/C(C#N)=C/c2cn(CC(=O)NCc3ccco3)c3ccccc23)c1C", "Potency": "inconclusive: 11.2 µM [activator, single point]"},
      {"smiles": "CC(=O)N(Cc1cccs1)Cc1cc2cc(C)c(C)cc2nc1Cl", "Potency": "inconclusive: 12.6 µM [inhibitor, partial curve]"},
      {"smiles": "COc1ccc2c(COC(=O)c3n[nH]c4ccccc34)cc(=O)oc2c1", "Potency": "inconclusive: 35.5 µM [activator, single point]"},
      {"smiles": "Cc1cc(=O)[nH]c(N=N/C(=N/Nc2ccc(O)cc2)c2ccccc2)n1", "Potency": "active: 1.58 µM"},
      {"smiles": "CN(c1ccccc1C(=O)Nc1ccc2c(c1)OCO2)S(C)(=O)=O", "activity change, negative = inhibition": "inactive: -12.2%"},
      {"smiles": "O=C(c1ccc(S(=O)(=O)N2CCCCC2)cc1)N1CCCc2ccccc21", "Potency": "inconclusive: 8.91 µM [inhibitor, partial curve]"},
      {"smiles": "Cc1ccc2c(CN3C(=O)NC(C)(c4ccc5c(c4)OCO5)C3=O)cc(=O)oc2c1", "note": "(stereo not given)", "Potency": "inconclusive: 35.5 µM [inhibitor, single point]"},
      {"smiles": "Cc1nnc2sc(-c3ccncc3)nn12", "activity change, negative = inhibition": "inactive: -1.1%"},
      {"smiles": "CCn1cnc2c1c(=O)n(Cc1csc(-c3ccccc3)n1)c(=O)n2Cc1ccccc1", "Potency": "inconclusive: 17.8 µM [inhibitor, single point]"},
      {"smiles": "COc1cc(-n2c(=O)c3ccccc3n(CC(=O)c3ccc(Br)cc3)c2=O)cc(OC)c1OC", "activity change, negative = inhibition": "inactive: 6.79%"},
      {"smiles": "COc1ccc(Cl)cc1NC(=S)NCCSc1ccc(C)cc1", "Potency": "inconclusive: 15.8 µM [inhibitor, single point]"},
      {"smiles": "CCn1c(=S)[nH]c2scc(-c3cccs3)c2c1=O", "Potency": "inconclusive: 11.2 µM [inhibitor, single point]"},
      {"smiles": "CN(C)c1ccc(/C=N/NC(=O)CCc2nc3ccccc3[nH]2)cc1", "activity change, negative = inhibition": "inactive: 0.597% [at 9.22 µM]"},
      {"smiles": "Cc1ccc(-c2nc(NC(=O)c3cc(C(C)(C)C)nn3C)sc2C)cc1Cl", "activity change, negative = inhibition": "inactive: -22.3% [at 9.22 µM]"},
      {"smiles": "CCSc1nnc(NC(=O)C(C)Sc2nc3ccccc3[nH]2)s1", "note": "(stereo not given)", "activity change, negative = inhibition": "inactive: 3.49%"},
      {"smiles": "COc1ccc(OCC(O)CNC(=O)c2ccc(Br)cc2)cc1", "note": "(stereo not given)", "activity change, negative = inhibition": "inactive: -14.2%"},
      {"smiles": "Cc1ccc(-c2cc(-c3ccc(C)o3)nc(N)c2C#N)cc1", "Potency": "inconclusive: 31.6 µM [activator, single point]"},
      {"smiles": "Cc1ccccc1NC(=O)CSc1nnc(-c2ccoc2C)n1CCc1ccccc1", "activity change, negative = inhibition": "inactive: -4.45%"},
      {"smiles": "Cc1cc2nc(-c3ccccn3)c(-c3ccccn3)nc2cc1C", "activity change, negative = inhibition": "inactive: -11.2% [at 9.22 µM]"},
      {"smiles": "Cc1ccc(NC(=O)NCC2CCN(Cc3cccc(Cl)c3)CC2)c(Cl)c1", "Potency": "inconclusive: 35.5 µM [inhibitor, single point]"},
      {"smiles": "CCOC(=O)c1c(CSC(=N)N)n(-c2ccc(C)cc2)c2cc(Br)c(OC(C)=O)cc12", "Potency": "inconclusive: 25.1 µM [activator, single point]"},
      {"smiles": "O=C(NCc1ccncc1)c1cncc(Br)c1", "activity change, negative = inhibition": "inactive: -5.41%"},
      {"smiles": "CCN(CC)CCNC(=O)c1ccc(-n2c(C)cc3c2CCCC3=O)cc1", "activity change, negative = inhibition": "inactive: 5.13%"},
      {"smiles": "COc1ccc(OC)c(NC(=O)C2CCCN(S(=O)(=O)c3c(C)noc3C)C2)c1", "note": "(stereo not given)", "Potency": "inconclusive: 31.6 µM [inhibitor, single point]"},
      {"smiles": "Cc1oc(-c2ccc(Cl)cc2)nc1CN1CCCC(C(=O)NCCCN2CCCC2=O)C1", "note": "(stereo not given)", "Potency": "inconclusive: 22.4 µM [inhibitor, single point]"},
      {"smiles": "Cc1ccsc1C(=O)Nc1ccc(C(=O)O)cc1", "activity change, negative = inhibition": "inactive: -14.3%"},
      {"smiles": "CC1(C)C(=O)OC(c2cccn2-c2cccc([N+](=O)[O-])c2)C2(CCCCC2)C1=O", "note": "(stereo not given)", "Potency": "inconclusive: 35.5 µM [inhibitor, single point]"},
      {"smiles": "Cc1cc(C)nc(SCC(=O)Nc2ccc(N3CCOCC3)c(Cl)c2)n1", "Potency": "inconclusive: 10 µM [inhibitor, partial curve, poor fit]"},
      {"smiles": "COc1ccc(OC)c(CCNC(=O)Cn2sc3nc(C)cc(C)c3c2=O)c1", "Potency": "inconclusive: 25.1 µM [inhibitor, single point]"},
      {"smiles": "O=[N+]([O-])c1ccc(O)c2ncccc12", "Potency": "active: 3.55 µM"},
      {"smiles": "Cc1ccc(NC(=S)N(CCCN2CCCC2)Cc2cccn2Cc2ccc(Cl)cc2)cc1", "Potency": "inconclusive: 35.5 µM [inhibitor, single point]"},
      {"smiles": "COc1cc(NC(=O)CCNS(=O)(=O)c2ccc3c(c2)CCC(=O)N3)cc(OC)c1", "Potency": "inconclusive: 7.08 µM [activator, partial curve]"},
      {"smiles": "CCS(=O)(=O)c1ccc(-c2csc(-c3ccccc3)n2)c(Cl)c1Cl", "Potency": "active: 11.2 µM"},
      {"smiles": "Cc1cccc(NC(=S)Nc2ccc3cn[nH]c3c2)c1", "Potency": "inconclusive: 5.62 µM [inhibitor, single point]"},
      {"smiles": "NC(=O)Nc1ccc(Nc2ccccc2)cc1", "activity change, negative = inhibition": "inactive: -6.6% [at 9.22 µM]"},
      {"smiles": "CCn1c(SCc2ccc(Cl)c(Cl)c2)nnc1C(C)NC(=O)c1ccc(OC)cc1", "note": "(stereo not given)", "Potency": "inconclusive: 1.26 µM [inhibitor, single point]"},
      {"smiles": "COc1ccc(/C=N/N2CCN(C3c4ccccc4-c4ccccc43)CC2)cc1O", "Potency": "inconclusive: 35.5 µM [activator, single point]"},
      {"smiles": "Clc1ccccc1-c1nnc2sc(-c3ccncc3)nn12", "Potency": "inconclusive: 11.2 µM [inhibitor, single point]"},
      {"smiles": "O=C(COC(=O)c1ccc(OC(F)F)cc1)NCCCN1CCCC1=O", "activity change, negative = inhibition": "inactive: -6.62% [at 9.22 µM]"},
      {"smiles": "CN(Cc1cc(Br)cc(Br)c1N)C1CCCCC1", "Potency": "inconclusive: 35.5 µM [inhibitor, single point]"},
      {"smiles": "CCCCCNC(=O)c1ccc2c(=O)n(CCCOCC)c(=S)[nH]c2c1", "activity change, negative = inhibition": "inactive: 6.6%"},
      {"smiles": "N#CC1=C(N)OC2=C(CC/C2=C\\c2ccccc2)C1c1ccccc1", "note": "(stereo not given)", "Potency": "inconclusive: 25.1 µM [inhibitor, single point]"},
      {"smiles": "CCc1c(C)nc(SCCOc2ccc(OC)cc2)[nH]c1=O", "Potency": "inconclusive: 28.2 µM [inhibitor, partial curve]"},
      {"smiles": "Cc1nc(N2N=C3/C(=C/c4ccc(F)cc4)CCCC3C2c2ccc(F)cc2)sc1C(=O)N(C)C", "note": "(stereo not given)", "Potency": "inconclusive: 14.1 µM [inhibitor, single point]"},
      {"smiles": "CC(=O)c1cccc(CN2CCN(Cc3ccc(C)cc3)C(CCO)C2)c1", "note": "(stereo not given)", "Potency": "inconclusive: 1.12 µM [inhibitor, full curve, poor fit]"},
      {"smiles": "O=S(=O)(c1ccc(Cl)cc1)c1cnc2ccccc2n1", "Potency": "inconclusive: 22.4 µM [inhibitor, single point]"},
      {"smiles": "CC(CCc1ccco1)NC(=O)c1cccc2c1C(=O)N(C1CCCCC1)C2", "note": "(stereo not given)", "Potency": "inconclusive: 15.8 µM [inhibitor, single point]"},
      {"smiles": "CCOC(=O)c1cc(C#N)c(Oc2cccc(C(F)(F)F)c2)nc1-c1ccccc1", "Potency": "inconclusive: 7.94 µM [inhibitor, partial curve]"},
      {"smiles": "CCOc1cc(/C=C2\\C(=O)N(CCc3ccc(OC)c(OC)c3)C(C)=C2C(=O)OC)ccc1O", "Potency": "inconclusive: 35.5 µM [activator, single point]"},
      {"smiles": "Cc1cc(C)cc(-n2c(C)cc(C=C(C#N)C#N)c2C)c1", "activity change, negative = inhibition": "inactive: -7.98%"},
      {"smiles": "CC1S/C(=N/N=C/c2cccs2)NC1=O", "note": "(stereo not given)", "Potency": "inconclusive: 2.82 µM [inhibitor, single point]"},
      {"smiles": "O=C(c1ccccc1F)N(NC(=O)C(O)(c1ccccc1)c1ccccc1)c1ccccc1", "Potency": "inconclusive: 0.562 µM [activator, full curve, poor fit]"},
      {"smiles": "N#Cc1c(N)nc2c(c1N)CC(C(F)(F)F)O2", "note": "(stereo not given)", "Potency": "inconclusive: 17.8 µM [inhibitor, single point]"},
      {"smiles": "CCOc1ccc(-n2nnnc2SCC(=O)NNC(=O)c2ccco2)cc1", "activity change, negative = inhibition": "inactive: -16% [at 9.22 µM]"},
      {"smiles": "OCC1CCCN(C(=S)Nc2ccc(OC(F)F)cc2)C1", "note": "(stereo not given)", "Potency": "inconclusive: 3.16 µM [inhibitor, single point]"},
      {"smiles": "Cc1cc(Cl)ccc1OC(C)C(=O)N1CCCN(C(=O)C(C)Oc2ccc(Cl)cc2C)CC1", "note": "(stereo not given)", "Potency": "inconclusive: 35.5 µM [inhibitor, single point]"},
      {"smiles": "O=S(=O)(c1cccc2ccccc12)n1nnc2ccccc21", "Potency": "inconclusive: 0.562 µM [inhibitor, full curve, poor fit]"},
      {"smiles": "COc1cccc(N2CN(C3CCCCC3)CNC2=S)c1", "activity change, negative = inhibition": "inactive: -21.6% [at 9.22 µM]"},
      {"smiles": "Cc1ccc(NC(=S)N=Nc2c(O)[nH]c3ccccc23)cc1", "Potency": "inconclusive: 7.08 µM [inhibitor, partial curve]"},
      {"smiles": "NC(=S)N/N=C\\c1c(OCc2ccccc2Cl)ccc2ccccc12", "activity change, negative = inhibition": "inactive: -5.72%"},
      {"smiles": "Cc1onc(-c2c(F)cccc2Cl)c1C(=O)N1CCN(c2ncccn2)CC1", "activity change, negative = inhibition": "inactive: -14.7% [at 9.22 µM]"},
      {"smiles": "COc1ccc(C2=NN(CN3C(=O)C(=O)c4ccccc43)C(c3ccc(OC)cc3)C2)cc1", "note": "(stereo not given)", "activity change, negative = inhibition": "inactive: -6.12%"},
      {"smiles": "CCOC(=O)C1CCN(C(=O)CCNC(=O)Cn2ccc3ccccc3c2=O)CC1", "Potency": "inconclusive: 35.5 µM [inhibitor, single point]"},
      {"smiles": "CC(=O)c1cccc(NC(=O)CCS(=O)(=O)c2ccc(Br)s2)c1", "activity change, negative = inhibition": "inactive: -2.52%"},
      {"smiles": "N#CC1=C(SCC(=O)c2ccccc2)NC2=C(C(=O)CCC2)C1c1ccco1", "note": "(stereo not given)", "Potency": "active: 11.2 µM"}
    ]}
  ]
}
